Measurements from paper PMC7819943, “Rice protein-binding microarrays: a tool to detect cis-acting elements near promoter regions in rice”.
Some of the results follow.

Chains of the proteins cited; added tags and fusions are not shown.
UniProt Q0JBA9, entry or part of it: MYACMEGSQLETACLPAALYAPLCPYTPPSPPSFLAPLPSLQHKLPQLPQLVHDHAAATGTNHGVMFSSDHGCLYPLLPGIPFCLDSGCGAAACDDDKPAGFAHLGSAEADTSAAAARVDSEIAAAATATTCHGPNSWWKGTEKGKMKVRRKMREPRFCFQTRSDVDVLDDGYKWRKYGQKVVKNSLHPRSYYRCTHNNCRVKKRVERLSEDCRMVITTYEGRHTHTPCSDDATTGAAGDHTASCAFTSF

Biological target: OsWRKY34 (Oryza sativa, UniProt Q0JBA9 1-250)
Experiment: protein-binding microarray (RPBM); PBS, 2% BSA, 51.3 ng/ul salmon testes DNA, 50 uM zinc acetate, 200 nM TF, 25 C, 1 h; high values mean tight binding
Details: protein: recombinant; tags: N-terminal polyhistidine and DsRed monomer fusion (pET32a); label: CyDye5-dUTP incorporated in the synthesized complementary strand; 3' TTTTT single-stranded linker to array surface; dsDNA, one strand shown
Procedure, shortened: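 Ni–NTA purification followed expression in E. coli BL21-CodonPlus of transcription factors fused N-terminally to a polyhistidine tag and DsRed. At 200 nM in PBS with 2% BSA, salmon testes DNA and 50 µM zinc acetate, the protein was incubated for 1 h at 25 °C with a custom Agilent array that had been primer-extended with Cy5-dUTP and blocked with 2% BSA. After washing, the array was read on an Axon 4000B scanner. The binding signal is per-feature fluorescence intensity in arbitrary units.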

Sequence	binding signal
CTGTGGTAGGGGAGAATGAGGGCACACATGCGGGTTTAAGCGGAGTCACCTAGTGCAG	8260 fluorescence intensity (a.u.)
CTATTGGCTCATACCTTTTTTCAGTGGCTGGGTGTAGGTTCGGAGTCACCTAGTGCAG	8840 fluorescence intensity (a.u.)
CTCCCTCCGTTTCGAAATGTTTGACGCCGTTGACTTTTTACGGAGTCACCTAGTGCAG	15900 fluorescence intensity (a.u.)
GTGTTTAGCGCTTTGACCATCCATCTTATCTGAAAAATTTCGGAGTCACCTAGTGCAG	11600 fluorescence intensity (a.u.)
TTGATTTCTTGTATGCTAGCCATTTTCATATTTTGTATTACGGAGTCACCTAGTGCAG	9710 fluorescence intensity (a.u.)
GCCGCCTCCGCCGCCGCCCGATAGGCCTCCGGCGCCGCCCCGGAGTCACCTAGTGCAG	9360 fluorescence intensity (a.u.)
TTGGGTTGAGATGGGTAGGAGTGGTGGTGGCGGTGGTGGTCGGAGTCACCTAGTGCAG	8160 fluorescence intensity (a.u.)
AAAAGGCATTTTCCCCGATGTGGGTTTTATTTTTCCAGTCCGGAGTCACCTAGTGCAG	8910 fluorescence intensity (a.u.)
GAGCTGGTGGAGGGGTCTTAGCTCGTGAGAGGGATTTGATCGGAGTCACCTAGTGCAG	8330 fluorescence intensity (a.u.)
GACGAATACCGGTCAACACCGCCATATCAGCGCCACGTCACGGAGTCACCTAGTGCAG	8220 fluorescence intensity (a.u.)
ATGCTATACCTACGGTTTCGTTTTTTCTACTTTCTAGCATCGGAGTCACCTAGTGCAG	10900 fluorescence intensity (a.u.)
CCCCATTTCGCCTTCTGCTCCGGTGAGCTCCGATCTGACTCGGAGTCACCTAGTGCAG	9310 fluorescence intensity (a.u.)
AGATGCTACTTTGATCAACCTGCGCCGTGCTGTAGTCCAACGGAGTCACCTAGTGCAG	8170 fluorescence intensity (a.u.)
TGACTATACACCTTCAATTGGTTCATCCTTCACTATCTCTCGGAGTCACCTAGTGCAG	9440 fluorescence intensity (a.u.)
GCTTTTCCGCCCATAGATTCCCTTTTCCCGGCCCAATTCCCGGAGTCACCTAGTGCAG	8180 fluorescence intensity (a.u.)
ACGAAGCCGGCGCCGTCGTTCTCTTTCTCACGTCGCCGTCCGGAGTCACCTAGTGCAG	9200 fluorescence intensity (a.u.)
AACACCATCCATGCTGTCGAGTATCAAAGGCTTCTTGTTCCGGAGTCACCTAGTGCAG	9960 fluorescence intensity (a.u.)
TGGTTGGTTTTTGCGAAATTTTCTGTGATTTCGAGATAGGCGGAGTCACCTAGTGCAG	15600 fluorescence intensity (a.u.)
GAAAGCAGCGGCGCGGGGTTTTCGAGTGGGTTTGGGGATACGGAGTCACCTAGTGCAG	10500 fluorescence intensity (a.u.)
CTTCTTCTCACGTCTCTCTCTCTGAATCCAGATTTTTTTTCGGAGTCACCTAGTGCAG	8590 fluorescence intensity (a.u.)
GCTCGTTGCCATGGTCTTCCTTGTCAATCCAACCTGCATCCGGAGTCACCTAGTGCAG	8890 fluorescence intensity (a.u.)

5 entries drawn at random from the list so far, as already listed:
Sequence	binding signal
GCTCGTTGCCATGGTCTTCCTTGTCAATCCAACCTGCATCCGGAGTCACCTAGTGCAG	8890 fluorescence intensity (a.u.)
GTGTTTAGCGCTTTGACCATCCATCTTATCTGAAAAATTTCGGAGTCACCTAGTGCAG	11600 fluorescence intensity (a.u.)
TTGGGTTGAGATGGGTAGGAGTGGTGGTGGCGGTGGTGGTCGGAGTCACCTAGTGCAG	8160 fluorescence intensity (a.u.)
GCTTTTCCGCCCATAGATTCCCTTTTCCCGGCCCAATTCCCGGAGTCACCTAGTGCAG	8180 fluorescence intensity (a.u.)
TGGTTGGTTTTTGCGAAATTTTCTGTGATTTCGAGATAGGCGGAGTCACCTAGTGCAG	15600 fluorescence intensity (a.u.)

Further results.

Sequence	binding signal
CGCTGTTGATTCATATGGCTTCTTTTGGTCTTCTGCTCTTCGGAGTCACCTAGTGCAG	8580 fluorescence intensity (a.u.)
TAAGTATTGTTTTCTTTTCTCTTTATTCTCTTGCGTCTTCCGGAGTCACCTAGTGCAG	9520 fluorescence intensity (a.u.)
ATATTTTTTCTGATGTTTTGGGGCTTTTCTAGTCGTTATACGGAGTCACCTAGTGCAG	12300 fluorescence intensity (a.u.)
GTTGACTCGCACTTTTTGTAATTATGTGTTACATGGTTTCCGGAGTCACCTAGTGCAG	8810 fluorescence intensity (a.u.)
TAACTTCTTGCTGAACCACGTTTGATCCTGTTATCAATTTCGGAGTCACCTAGTGCAG	8970 fluorescence intensity (a.u.)
AAATAATCTGTCTTCTATTCTTCGTGTTCCTTTTTTGAAACGGAGTCACCTAGTGCAG	8560 fluorescence intensity (a.u.)
TACTAGTAGCTTCTCTCTCTCTCTCTTCTTCTTCCTCGCTCGGAGTCACCTAGTGCAG	9760 fluorescence intensity (a.u.)
TCCGTCGTCTTCCTTTACTGGTTCTATGTCTTCTCAGTAACGGAGTCACCTAGTGCAG	10800 fluorescence intensity (a.u.)
CTAACCAGGTGATAACTTGTCCTTGCAAATCACTATCATCCGGAGTCACCTAGTGCAG	8370 fluorescence intensity (a.u.)
CGTTATCTCACGACGCCGTCCCGCCACGTCTCGCCGTTTCCGGAGTCACCTAGTGCAG	8590 fluorescence intensity (a.u.)
CGATATTCCCGGTTTTGTGGTTGGAGGTTATGAATGATACCGGAGTCACCTAGTGCAG	9980 fluorescence intensity (a.u.)
TGTATTTGACTGTTACTGCTTTTGGATTTTGTTTCATTTTCGGAGTCACCTAGTGCAG	17500 fluorescence intensity (a.u.)
GCTATAAATAGGCAGGTTTGGATAGGTATGGGGCTAACTACGGAGTCACCTAGTGCAG	9660 fluorescence intensity (a.u.)
TTTGCCAGTGTCCCGATTCAGATATTAGGTGTCAAAATCTCGGAGTCACCTAGTGCAG	8630 fluorescence intensity (a.u.)
CCCGCATTTAAAACTTTAATCTCGATACTTAATTGTCTGCCGGAGTCACCTAGTGCAG	8120 fluorescence intensity (a.u.)
CCGGGATACTATAAAGCTTTTCTTGCTACTAAGATCCTACCGGAGTCACCTAGTGCAG	8860 fluorescence intensity (a.u.)
GGTTGTGGTTAATTTTTAAAATATAACATTTCATTTTTTTCGGAGTCACCTAGTGCAG	8020 fluorescence intensity (a.u.)
CCTGCCTATATTTTTTTTCTTGTCTATAGGTATACTCAGGCGGAGTCACCTAGTGCAG	9640 fluorescence intensity (a.u.)
GCATGAGTAGGGGATGGCATTAAAACAGGTTGGTCAGGTGCGGAGTCACCTAGTGCAG	8920 fluorescence intensity (a.u.)
GGGCTCAAAATAGACTTATTCCATTCAGAGCTGTTTGGGGCGGAGTCACCTAGTGCAG	8060 fluorescence intensity (a.u.)
CATTTTTGGTCTTTTCTGTTACCTTCTGCTAATATATTTCCGGAGTCACCTAGTGCAG	14400 fluorescence intensity (a.u.)

Sequence	binding signal
TTGTTATTTTTGTTGCAACTTATAGAAGTTCAATTGGTCTCGGAGTCACCTAGTGCAG	8030 fluorescence intensity (a.u.)
TCCACTCTCTGACTTTAATATTTACCACACGTTTGCAACTCGGAGTCACCTAGTGCAG	8090 fluorescence intensity (a.u.)
AAACGCGCCGGCCTCGTCGTCCGACCGTCACTTGCATTGTCGGAGTCACCTAGTGCAG	8530 fluorescence intensity (a.u.)
TCTAGATTTGATCATTTTGACCTCTTGCTCCGTTAGATCTCGGAGTCACCTAGTGCAG	10300 fluorescence intensity (a.u.)
CCATTTGGTGCGCCGTCGCCGTTGTCCTGCCTTCGCCGCCCGGAGTCACCTAGTGCAG	13800 fluorescence intensity (a.u.)
ATTCTTCATTTATCAGGGGACAGTATAGCAACACTTCTCTCGGAGTCACCTAGTGCAG	8740 fluorescence intensity (a.u.)
CGTCTCGTTTTATGTTCACTTATTTTTATTATCATTTTTACGGAGTCACCTAGTGCAG	10900 fluorescence intensity (a.u.)
AGTATAATAAGTGTTTCTTTTCACAACCTTTCCTTGTGTACGGAGTCACCTAGTGCAG	8950 fluorescence intensity (a.u.)
GCCAAACAACACATTATGTACATTTTTTTCCTATATAAAACGGAGTCACCTAGTGCAG	8120 fluorescence intensity (a.u.)
CTCTCTACTTTCTTTCTTTGACTTGTGGCACACACCTCTACGGAGTCACCTAGTGCAG	14200 fluorescence intensity (a.u.)
TATAATTATGTCATCACATCAGCACCATATATATGGAATCCGGAGTCACCTAGTGCAG	8590 fluorescence intensity (a.u.)
CTTCGTCTCCGCTCCTCTCCGCCGCCTCGTCTCGTCGCCTCGGAGTCACCTAGTGCAG	8430 fluorescence intensity (a.u.)
ACAGCCTCTACATTTTACTTGTTTCATAATCCTGTGTTCTCGGAGTCACCTAGTGCAG	13500 fluorescence intensity (a.u.)
ATCTGTTCGTGGGTTGCTTGCTCAGTCGACCAATCGTTGACGGAGTCACCTAGTGCAG	19200 fluorescence intensity (a.u.)
CTCCATCCGCTCCGTCCGCCGAGACGAGATCCCTTTCCTCCGGAGTCACCTAGTGCAG	9010 fluorescence intensity (a.u.)
CTCTCTGGGTTGACTTACCGTTTTAGACAAGGGCACGGTCCGGAGTCACCTAGTGCAG	8990 fluorescence intensity (a.u.)
TCGATTCCCGGGTGCACTCGCCGCCAACACCTCACCCGCCCGGAGTCACCTAGTGCAG	8790 fluorescence intensity (a.u.)
ACAGCGACGGGAGGGGAGGGATCGCGCGTTCTCGATTCGGCGGAGTCACCTAGTGCAG	10500 fluorescence intensity (a.u.)
CAATAGTTCATATACTAGTTGAATGCCTGTGCCTTCCAACCGGAGTCACCTAGTGCAG	8580 fluorescence intensity (a.u.)
GGAAGATTGTTCTCTTCGGATCATTGCTGTCTGGGGTATGCGGAGTCACCTAGTGCAG	10700 fluorescence intensity (a.u.)
GGGTGTTGTCGTTCCTTAAGGGCTAAGCTGTTGGAAACAACGGAGTCACCTAGTGCAG	8330 fluorescence intensity (a.u.)

Exported field by field: part of the list above.
CTTCGTCTCCGCTCCTCTCCGCCGCCTCGTCTCGTCGCCTCGGAGTCACCTAGTGCAG
  binding signal = 8430 fluorescence intensity (a.u.)
GGGTGTTGTCGTTCCTTAAGGGCTAAGCTGTTGGAAACAACGGAGTCACCTAGTGCAG
  binding signal = 8330 fluorescence intensity (a.u.)

Following part.

Sequence	binding signal
CGGGTGTTGGGTGTTTTCAACTCTAATTCGGGCGAGCAATCGGAGTCACCTAGTGCAG	11100 fluorescence intensity (a.u.)
TTCTTTTTTCTTTTACGCGATATACTCGACGACTACTCCGCGGAGTCACCTAGTGCAG	10200 fluorescence intensity (a.u.)
ACCCATGATATTCACTGAAACTTCTGATATTGACCATGACCGGAGTCACCTAGTGCAG	8430 fluorescence intensity (a.u.)
GCCTTTTTTCCTTTGTCTTTTTCCGGCCCGCGTTCTTTTTCGGAGTCACCTAGTGCAG	17400 fluorescence intensity (a.u.)
TTTATAACTCCTATACGTTTGTCCCTATAAACAAGATACACGGAGTCACCTAGTGCAG	8500 fluorescence intensity (a.u.)
ACTTACTTTCGGCCATTATTCATGTAGTAGTAGGATACTTCGGAGTCACCTAGTGCAG	8030 fluorescence intensity (a.u.)
GTCCGTTCACCTCTCCGTAACCGTGCTCCAGCCGCTTCTTCGGAGTCACCTAGTGCAG	9570 fluorescence intensity (a.u.)
TTATTTTACGACCTTTTCTTTTAAATCGCTATGAATGTGTCGGAGTCACCTAGTGCAG	8800 fluorescence intensity (a.u.)
AGTGAGTGGTTTTCTCTTGACAAATCTTTTTTATACTATACGGAGTCACCTAGTGCAG	8480 fluorescence intensity (a.u.)
TGGTGGGTGGTTGATTGATTGTTCTTTCCTTCCTCGTGAGCGGAGTCACCTAGTGCAG	11800 fluorescence intensity (a.u.)
CCCCGCTTTCCCGCGGCTTAAAAACCTTTCCATCTCCAACCGGAGTCACCTAGTGCAG	9730 fluorescence intensity (a.u.)
TGCAATGCATCTCCATGAATATTTGTTTGTATTTAAGTCCCGGAGTCACCTAGTGCAG	9350 fluorescence intensity (a.u.)
ACGTGCGCCAACTTAATCTTCATCTTCATCAGTTTTAAACCGGAGTCACCTAGTGCAG	8830 fluorescence intensity (a.u.)
ATTATCTATTTTGGCCAATTGTATTATTTCCTTGCGTATTCGGAGTCACCTAGTGCAG	14600 fluorescence intensity (a.u.)
TGCCAGTGCTATCCGTCGCCACCTACCACCTTACAACGGTCGGAGTCACCTAGTGCAG	9400 fluorescence intensity (a.u.)
TTTTTTCCATCCAGCTATTCAAGATGCTAGTGTTTTTTTTCGGAGTCACCTAGTGCAG	10400 fluorescence intensity (a.u.)
CGTAGGCCACGCCACCTCACCCTGTTGACCGAGTCAAACCCGGAGTCACCTAGTGCAG	11900 fluorescence intensity (a.u.)
ACGACGAGTACACCATTTCCTGTCCCACGGCATTAACCGACGGAGTCACCTAGTGCAG	11700 fluorescence intensity (a.u.)
GATTGCTTTGTGGGTGTATGGTTCATCTTCAATGGTTTACCGGAGTCACCTAGTGCAG	8030 fluorescence intensity (a.u.)
CTCGCCGCCGTCCTGCCCGCCTCCACCCTTTCGCCTCCTCCGGAGTCACCTAGTGCAG	8200 fluorescence intensity (a.u.)
GAAGCCGCAGCGGTGCGTTTCCATGTGGCGAATATTTCCACGGAGTCACCTAGTGCAG	8250 fluorescence intensity (a.u.)
